Data as given in patent US12102089B2, “Method for inactivating mold spores” (DSM IP ASSETS B.V., priority 2017, dated 2024).
This continues a long series; more values of the same kind are listed elsewhere.

Tested on: Paecilomyces variotti (ATCC 22319)
Experiment: Heat treatment of Paecilomyces variotti spores in ice tea with natamycin, visual growth
Assay type: cell-based
Set-up: key: growth (+); no growth (−)
Method: Commercially available ice tea (Lipton, peach flavor, non-carbonated, 1.5 L) was adjusted to high water hardness by adding 1 ml of a solution of 39 g CaCl2 and 27 g MgCl2 added to 934 g water. ⅓ of this ice tea preparation (the pH of which was 3.15) was left as-such, ⅓ of the preparation was enriched with 5 ppm natamycin and ⅓ of the preparation was enriched with 10 ppm natamycin. Samples of 5 ml were made from each preparation in 15 ml sterile plastic tubes. Of each preparation 8 samples were pre-heated to the desired pasteurization temperature using a water bath. Temperatures used were RT, 60, 65, 70, 75, 80, 85 and 90° C. When the desired temperature was reached, 100 μl of a 2500 spores/ml spore suspension of Aspergillus niger ATCC 9029AA was added to each tube. Subsequently, the samples were kept for 30 seconds at the temperature in question in the water bath. Next, the samples were cooled on ice to a temperature of 25° C. Samples were incubated at 25° C. and visually examined for growth (formation of mold flakes or turbidity) for two months. Additionally, samples were enumerated according to ISO protocol 21527-1.2008 on day 0 (before heat treatment) and day 1 (after heat treatment) to count immediate loss of viability. […] For the results, see Table 1. […] Example 1 was repeated however with Paecilomyces variotti (ATCC 22319, 1000 spores/ml) instead of Aspergillus niger.

Measured: growth (+) or no growth (−)

C[C@@H]1C/C=C/C=C/C=C/C=C/[C@H](O[C@@H]2O[C@H](C)[C@@H](O)[C@H](N)[C@@H]2O)C[C@@H]2O[C@](O)(C[C@@H](O)C[C@H]3O[C@@H]3/C=C/C(=O)O1)C[C@H](O)[C@H]2C(=O)O [natamycin]
−: T 70, natamycin 10 ppm, day 1 | T 70, natamycin 10 ppm, day 2 | T 70, natamycin 10 ppm, day 3 | T 70, natamycin 10 ppm, day 4 | T 70, natamycin 10 ppm, day 5 | T 70, natamycin 10 ppm, day 6 | T 70, natamycin 10 ppm, day 7 | T 70, natamycin 10 ppm, day 8 | T 75, natamycin 5 ppm, day 1 | T 75, natamycin 5 ppm, day 2 | T 75, natamycin 5 ppm, day 3 | T 75, natamycin 5 ppm, day 4 | T 75, natamycin 5 ppm, day 5 | T 75, natamycin 5 ppm, day 6 | T 75, natamycin 5 ppm, day 7 | T 75, natamycin 5 ppm, day 8 | T 75, natamycin 5 ppm, day 9 | T 75, natamycin 5 ppm, day 10 | T 75, natamycin 5 ppm, day 11 | T 75, natamycin 5 ppm, day 12 | T 75, natamycin 5 ppm, day 13 | T 75, natamycin 5 ppm, day 14 | T 75, natamycin 5 ppm, day 15 | T 75, natamycin 5 ppm, day 16 | T 75, natamycin 5 ppm, day 17 | T 75, natamycin 5 ppm, day 50 | T 75, natamycin 10 ppm, day 1 | T 75, natamycin 10 ppm, day 2 | T 75, natamycin 10 ppm, day 3 | T 75, natamycin 10 ppm, day 4 | T 75, natamycin 10 ppm, day 5 | T 75, natamycin 10 ppm, day 6 | T 75, natamycin 10 ppm, day 7 | T 75, natamycin 10 ppm, day 8 | T 75, natamycin 10 ppm, day 9 | T 75, natamycin 10 ppm, day 10 | T 75, natamycin 10 ppm, day 11 | T 75, natamycin 10 ppm, day 12 | T 75, natamycin 10 ppm, day 13 | T 75, natamycin 10 ppm, day 14 | T 75, natamycin 10 ppm, day 15 | T 75, natamycin 10 ppm, day 16 | T 75, natamycin 10 ppm, day 17 | T 75, natamycin 10 ppm, day 50 | T 80, natamycin 5 ppm, day 1 | T 80, natamycin 5 ppm, day 2 | T 80, natamycin 5 ppm, day 3 | T 80, natamycin 5 ppm, day 4 | T 80, natamycin 5 ppm, day 5 | T 80, natamycin 5 ppm, day 6 | T 80, natamycin 5 ppm, day 7 | T 80, natamycin 5 ppm, day 8 | T 80, natamycin 5 ppm, day 9 | T 80, natamycin 5 ppm, day 10 | T 80, natamycin 5 ppm, day 11 | T 80, natamycin 5 ppm, day 12 | T 80, natamycin 5 ppm, day 13 | T 80, natamycin 5 ppm, day 14 | T 80, natamycin 5 ppm, day 15 | T 80, natamycin 5 ppm, day 16 | T 80, natamycin 5 ppm, day 17 | T 80, natamycin 5 ppm, day 50 | T 80, natamycin 10 ppm, day 1 | T 80, natamycin 10 ppm, day 2 | T 80, natamycin 10 ppm, day 3 | T 80, natamycin 10 ppm, day 4 | T 80, natamycin 10 ppm, day 5 | T 80, natamycin 10 ppm, day 6 | T 80, natamycin 10 ppm, day 7 | T 80, natamycin 10 ppm, day 8 | T 80, natamycin 10 ppm, day 9 | T 80, natamycin 10 ppm, day 10 | T 80, natamycin 10 ppm, day 11 | T 80, natamycin 10 ppm, day 12 | T 80, natamycin 10 ppm, day 13 | T 80, natamycin 10 ppm, day 14 | T 80, natamycin 10 ppm, day 15 | T 80, natamycin 10 ppm, day 16 | T 80, natamycin 10 ppm, day 17 | T 80, natamycin 10 ppm, day 50 | T 85, natamycin 5 ppm, day 1 | T 85, natamycin 5 ppm, day 2 | T 85, natamycin 5 ppm, day 3 | T 85, natamycin 5 ppm, day 4 | T 85, natamycin 5 ppm, day 5 | T 85, natamycin 5 ppm, day 6 | T 85, natamycin 5 ppm, day 7 | T 85, natamycin 5 ppm, day 8 | T 85, natamycin 5 ppm, day 9 | T 85, natamycin 5 ppm, day 10 | T 85, natamycin 5 ppm, day 11 | T 85, natamycin 5 ppm, day 12 | T 85, natamycin 5 ppm, day 13 | T 85, natamycin 5 ppm, day 14
